These are yes or no findings as the source states them, for the method shown. Binding seen in cells or lysates may run through a third protein. Some entries that bind do so weakly or less than the wild type.
Biological target: indoleamine 2,3-dioxygenase (human (endogenous in human dMDSCs)) (UniProt P14902)
Assay: co-IP; RIPA lysate of purified human dMDSCs, uninfected or infected with T. gondii (24 h); anti-IDO antibody (5 µg/ml) or IgG as negative control, overnight at 4 °C, protein A/G-agarose beads; western blot for IDO and SOCS3

Protein sequences, listed by entry. Tags and fused reporters are not part of them.
UniProt P14902: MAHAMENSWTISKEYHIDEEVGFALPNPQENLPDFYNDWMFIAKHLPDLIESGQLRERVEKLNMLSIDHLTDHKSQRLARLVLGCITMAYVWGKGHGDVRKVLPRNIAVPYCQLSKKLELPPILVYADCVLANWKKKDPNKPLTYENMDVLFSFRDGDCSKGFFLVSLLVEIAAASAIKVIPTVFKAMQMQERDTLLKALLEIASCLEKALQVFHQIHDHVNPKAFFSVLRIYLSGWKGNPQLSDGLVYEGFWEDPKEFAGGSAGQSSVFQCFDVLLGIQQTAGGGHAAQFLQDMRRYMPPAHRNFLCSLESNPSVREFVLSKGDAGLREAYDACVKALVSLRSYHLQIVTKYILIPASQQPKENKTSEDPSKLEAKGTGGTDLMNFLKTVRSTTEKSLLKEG
UniProt O14543: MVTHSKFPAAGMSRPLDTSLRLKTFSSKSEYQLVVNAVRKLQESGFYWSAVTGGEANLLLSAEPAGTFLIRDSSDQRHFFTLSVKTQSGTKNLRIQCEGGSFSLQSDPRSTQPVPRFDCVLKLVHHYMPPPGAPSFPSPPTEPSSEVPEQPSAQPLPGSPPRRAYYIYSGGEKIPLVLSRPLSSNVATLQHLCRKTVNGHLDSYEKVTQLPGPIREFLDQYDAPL

## suppressors of cytokine signaling 3 (from UniProt O14543 1-225)
  binding: binds
